Measured data: PubChem BioAssay AID1259308 (NCATS, 2017)

Aim: 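Candidate targets for better recombinant protein yield in mammalian cells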 (primary screen)
System: human HEK293 embryonic kidney cells stably expressing firefly luciferase (HEK-CMV-Luc2-Hygro)
Reagent: single siRNA against human genes, 0.8 pmol siRNA per well
Timing: 72 h
Read-out: 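Luciferase light (ONE-Glo) measured on one replicate plate set and viability (CellTiter-Glo) on the other, scaled to a negative control siRNA, with robust z-scores and luciferase per cell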
Reading the numbers: total luciferase, z-score and total luciferase, % of control: higher = more reporter protein produced; luciferase per cell, z-score: higher = more reporter output per viable cell; viable cells, % of control: higher = more viable cells
Active means: 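An siRNA counts as active if its total luciferase robust z-score exceeds 3; genes with two or more such siRNAs out of three were retested with fresh siRNAs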
Meaning of the calls: active = raised luciferase; inactive = no rise
The whole screen tested about 59,000 reagents; this is a part drawn at random. In the full data, about 1,510 (2.6%) were called active. 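Calls use total luciferase alone and ignore viability, so some active siRNAs may act by altering cell number.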 The numbers tell different reagents against one gene apart.

gene,siRNA no.,"total luciferase, z-score","total luciferase, % of control","luciferase per cell, z-score","viable cells, % of control",Call
TRAPPC4 (GeneID 51399),1,0.144,84.8,0.674,79.3,inactive
TRAPPC4 (GeneID 51399),2,0.0696,83.3,-0.14,96.5,inactive
TRAPPC4 (GeneID 51399),3,-0.093,80,0.0344,88.6,inactive
TMEM244 (GeneID 253582),1,0.164,85.2,0.204,90.2,inactive
TMEM244 (GeneID 253582),2,-0.232,77.3,0.599,73.7,inactive
TMEM244 (GeneID 253582),3,0.354,88.9,0.0689,97.6,inactive
JPT1 (GeneID 51155),1,0.955,101,1.48,76.3,inactive
JPT1 (GeneID 51155),2,1.24,107,0.968,92.3,inactive
JPT1 (GeneID 51155),3,-0.924,63.5,-1.15,96.1,inactive
URI1 (GeneID 8725),1,-0.706,67.9,-0.597,88.7,inactive
URI1 (GeneID 8725),2,-1.05,61,-1.1,91,inactive
URI1 (GeneID 8725),3,-0.0799,80.3,-0.395,99.6,inactive
MAST1 (GeneID 22983),1,0.586,93.5,0.0165,104,inactive
MAST1 (GeneID 22983),2,0.697,95.7,1.11,79.8,inactive
MAST1 (GeneID 22983),3,0.852,98.8,0.875,87.7,inactive
RPP25L (GeneID 138716),1,1.27,107,1.9,72.6,inactive
RPP25L (GeneID 138716),2,0.738,96.6,1.52,72.4,inactive
RPP25L (GeneID 138716),3,-0.677,68.4,-1.14,103,inactive
GJC3 (GeneID 349149),1,2.29,127,2.44,75,inactive
GJC3 (GeneID 349149),2,3.61,154,2.77,82.8,active
GJC3 (GeneID 349149),3,0.544,92.7,0.213,97.9,inactive
CDON (GeneID 50937),1,1.89,119,1.18,97.9,inactive
CDON (GeneID 50937),2,0.159,85.1,-0.00814,95.2,inactive
CDON (GeneID 50937),3,-0.0303,81.3,-0.267,97.4,inactive
